Measurements published in doi:10.1101/2020.07.02.182121.
No constants are given. Whether binding was seen depends on the method and setting. Binding seen in cells or lysates may run through a third protein. Some entries that bind do so weakly or less than the wild type.

Amino acid sequences for entries named in this document (tags omitted).
UniProt P54646: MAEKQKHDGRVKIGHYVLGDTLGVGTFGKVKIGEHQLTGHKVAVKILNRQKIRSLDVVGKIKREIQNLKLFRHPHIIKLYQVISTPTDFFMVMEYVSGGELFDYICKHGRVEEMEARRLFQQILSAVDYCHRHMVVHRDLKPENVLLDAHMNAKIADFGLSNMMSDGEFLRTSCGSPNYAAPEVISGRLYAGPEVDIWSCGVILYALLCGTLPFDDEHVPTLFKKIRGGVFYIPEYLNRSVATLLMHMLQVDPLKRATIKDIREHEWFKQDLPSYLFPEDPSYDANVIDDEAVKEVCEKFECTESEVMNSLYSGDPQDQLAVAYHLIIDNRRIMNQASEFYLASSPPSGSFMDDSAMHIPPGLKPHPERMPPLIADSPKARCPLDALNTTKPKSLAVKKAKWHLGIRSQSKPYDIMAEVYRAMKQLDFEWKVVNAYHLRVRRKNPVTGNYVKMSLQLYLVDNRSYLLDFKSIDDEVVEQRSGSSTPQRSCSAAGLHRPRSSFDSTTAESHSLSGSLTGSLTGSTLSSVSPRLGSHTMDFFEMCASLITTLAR
UniProt Q9Y478: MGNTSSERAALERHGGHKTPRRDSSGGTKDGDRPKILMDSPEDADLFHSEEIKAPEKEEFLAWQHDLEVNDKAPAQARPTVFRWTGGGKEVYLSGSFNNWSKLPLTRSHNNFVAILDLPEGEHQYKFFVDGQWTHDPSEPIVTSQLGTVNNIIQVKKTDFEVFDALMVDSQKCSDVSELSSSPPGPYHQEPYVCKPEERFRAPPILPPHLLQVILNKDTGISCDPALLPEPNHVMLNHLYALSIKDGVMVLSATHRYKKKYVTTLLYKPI
UniProt Q9UKV0: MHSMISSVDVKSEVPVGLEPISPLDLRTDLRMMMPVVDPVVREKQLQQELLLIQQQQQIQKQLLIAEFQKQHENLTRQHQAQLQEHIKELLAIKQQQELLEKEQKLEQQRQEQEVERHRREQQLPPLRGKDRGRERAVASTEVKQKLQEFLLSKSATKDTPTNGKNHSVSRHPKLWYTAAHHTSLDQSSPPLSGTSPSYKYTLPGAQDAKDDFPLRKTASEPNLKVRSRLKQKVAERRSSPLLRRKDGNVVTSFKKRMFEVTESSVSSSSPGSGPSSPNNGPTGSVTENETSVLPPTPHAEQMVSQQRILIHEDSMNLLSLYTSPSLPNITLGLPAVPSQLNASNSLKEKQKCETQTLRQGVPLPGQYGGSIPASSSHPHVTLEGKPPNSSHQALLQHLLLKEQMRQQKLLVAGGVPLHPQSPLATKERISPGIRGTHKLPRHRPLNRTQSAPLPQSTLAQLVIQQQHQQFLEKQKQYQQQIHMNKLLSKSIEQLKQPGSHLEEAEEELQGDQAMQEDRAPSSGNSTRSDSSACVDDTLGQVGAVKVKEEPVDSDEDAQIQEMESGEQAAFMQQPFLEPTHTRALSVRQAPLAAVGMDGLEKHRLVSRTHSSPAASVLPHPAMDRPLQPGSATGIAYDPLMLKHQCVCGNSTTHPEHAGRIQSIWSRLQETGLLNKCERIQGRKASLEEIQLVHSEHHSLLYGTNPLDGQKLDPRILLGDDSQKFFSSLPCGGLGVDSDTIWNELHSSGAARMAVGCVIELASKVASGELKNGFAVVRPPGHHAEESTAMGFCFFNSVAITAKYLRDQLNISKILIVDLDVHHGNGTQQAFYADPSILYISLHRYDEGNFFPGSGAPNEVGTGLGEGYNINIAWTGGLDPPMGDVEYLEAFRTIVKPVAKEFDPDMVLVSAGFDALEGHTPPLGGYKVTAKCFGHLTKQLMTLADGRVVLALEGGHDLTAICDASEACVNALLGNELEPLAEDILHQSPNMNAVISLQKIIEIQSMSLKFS

B1: ASPP2 (apoptosis-stimulating of p53 protein 2), endogenous (protein, UniProt Q13625 1-1128)
chain: MMPMFLTVYLSNNEQHFTEVPVTPETICRDVVDLCKEPGESDCHLAEVWCGSERPVADNERMFDVLQRFGSQRNEVRFFLRHERPPGRDIVSGPRSQDPSLKRNGVKVPGEYRRKENGVNSPRMDLTLAELQEMASRQQQQIEAQQQLLATKEQRLKFLKQQDQRQQQQVAEQEKLKRLKEIAENQEAKLKKVRALKGHVEQKRLSNGKLVEEIEQMNNLFQQKQRELVLAVSKVEELTRQLEMLKNGRIDSHHDNQSAVAELDRLYKELQLRNKLNQEQNAKLQQQRECLNKRNSEVAVMDKRVNELRDRLWKKKAALQQKENLPVSSDGNLPQQAASAPSRVAAVGPYIQSSTMPRMPSRPELLVKPALPDGSLVIQASEGPMKIQTLPNMRSGAASQTKGSKIHPVGPDWSPSNADLFPSQGSASVPQSTGNALDQVDDGEVPLREKEKKVRPFSMFDAVDQSNAPPSFGTLRKNQSSEDILRDAQVANKNVAKVPPPVPTKPKQINLPYFGQTNQPPSDIKPDGSSQQLSTVVPSMGTKPKPAGQQPRVLLSPSIPSVGQDQTLSPGSKQESPPAAAVRPFTPQPSKDTLLPPFRKPQTVAASSIYSMYTQQQAPGKNFQQAVQSALTKTHTRGPHFSSVYGKPVIAAAQNQQQHPENIYSNSQGKPGSPEPETEPVSSVQENHENERIPRPLSPTKLLPFLSNPYRNQSDADLEALRKKLSNAPRPLKKRSSITEPEGPNGPNIQKLLYQRTTIAAMETISVPSYPSKSASVTASSESPVEIQNPYLHVEPEKEVVSLVPESLSPEDVGNASTENSDMPAPSPGLDYEPEGVPDNSPNLQNNPEEPNPEAPHVLDVYLEEYPPYPPPPYPSGEPEGPGEDSVSMRPPEITGQVSLPPGKRTNLRKTGSERIAHGMRVKFNPLALLLDSSLEGEFDLVQRIIYEVDDPSLPNDEGITALHNAVCAGHTEIVKFLVQFGVNVNAADSDGWTPLHCAASCNNVQVCKFLVESGAAVFAMTYSDMQTAADKCEEMEEGYTQCSQFLYGVQEKMGIMNKGVIYALWDYEPQNDDELPMKEGDCMTIIHREDEDEIEWWWARLNDKEGYVPRNLLGLYPRIKPRQRSLA

Experiments:
[1] = target: AMPKα2, endogenous (human (endogenous in 293T)) (UniProt P54646); experiment: co-IP
[2] = target: AMPKβ1, endogenous (human (endogenous in 293T)) (UniProt Q9Y478); experiment: co-IP

Row | Molecule | binding [1] | binding [2]
1 | HDAC9, endogenous (from UniProt Q9UKV0 1-1011) (enzyme) | binds | –
2 | B1 | – | binds
